Results taken from publication PMC12677461.

Amino acid sequences for entries named in this document (tags omitted).
UniProt P18872: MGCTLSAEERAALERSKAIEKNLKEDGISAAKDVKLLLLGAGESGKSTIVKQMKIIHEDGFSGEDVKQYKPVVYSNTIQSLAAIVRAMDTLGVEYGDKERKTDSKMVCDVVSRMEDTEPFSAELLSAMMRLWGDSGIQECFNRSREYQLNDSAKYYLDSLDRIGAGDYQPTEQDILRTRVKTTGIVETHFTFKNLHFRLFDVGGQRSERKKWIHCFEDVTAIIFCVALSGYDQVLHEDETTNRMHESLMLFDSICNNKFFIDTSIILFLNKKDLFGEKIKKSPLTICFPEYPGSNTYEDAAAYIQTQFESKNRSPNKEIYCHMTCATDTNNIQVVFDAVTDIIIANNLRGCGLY

Target: Gαo, alpha subunit of the heterotrimeric G protein Go (native, mouse brain) (mouse (endogenous in BALB/c mouse brain)) (UniProt P18872)
Assay: affinity purification with mass spectrometry; anti-Gαo (sc-13532) immunoprecipitate from mouse brain lysate with 100 µM GTPγS; in-gel trypsin digest, LC-MS/MS, Mascot/Scaffold

B1: GPRIN-1 (G protein-regulated inducer of neurite outgrowth 1) (protein, UniProt Q3UNH4 1-932)
chain: MRDCCSSPKAIPAPPRHALDQSLGMDPRHTSSSGAAEGASCSERPAGSLACPSPNCSPLPETPRAHGALTSDNSGTTLFGKPEPMSSAEATPTASEIRNPVFSGKMDGNSLKQADSTSTRKEEAGSLRNEESMLKGKAEPMIYGKGEPGTVGRVDCTASGAENSGSLGKVDMPCSSKVDIVSPGGDNAGSLRKVETISSGKMDPKTENVMHSRRERPGSTGEGDLVSLRENDMKPPDNTDSASTKKTDPEFSGKLTPGSSGKTELVSSVTVAPVTSENVNPVCSGGAGPAAVGNSETLSSVKKDPQLLGKKEAVSSGEGGSVSVRMAETVSARQPEGMFPAKTDSTSSNSTGPSGRADPVSLRNSELVSPVKPERLSSGQAERVSLVKTETLSSGKEDPRSSRRVDHTTVTGNMQTSQKGNPESSGKTDLGSSSSGDTRSLGTWGSLSAAKAEVTEGKGDPQPWKKASLPASEKTDPLASSKAGSASQGKAETVSPGEVDAMTLGKTVPTSSGKTALVSPGKVDLMTSERAEGIPELQASEKGNPVNSTRVDTGATGSTEPKSGVKVITQIPGATSPGKVETPSLQKEQPQLSEKTDPSRKVDPPTTVEPVSLGKADSASPSPRKAESQTSAKTVPQAPDKATSSLRQSDGTPYSSAQPQRDTRSIGSLPEREPSASTSQKDLAAAAAQKSPSAEAAAPPPGPRTRDNFTKAPSWDAGAPPPREDAGTQAGAQACVSVAVSPMSPQDGAGGPAFSFQAAPRAPSPAPRPPSRRDAGLQVSLGAAETRSVATGPMTPQAAAPPAVPPVFPEVRVRPGSVLAAALAPQEATEPVRDVSWDEKGMTWEVYGASMEVEVLGMAIQKHLERQIEEHGRQGAPAPAPPPAVRAGPGRAGSVRTAPAEGAAKRPPGLFRALLQSVRRPRCCSRAGPTAE
Question: How did the binding turn out when B1 was run?
Answer: binds

Results are given in words; binding and its absence hold for the method and conditions named. In cells and extracts the contact can be indirect. These calls come from enrichment with a bait or labelling near it, and not all partners need be listed.
